# In PubChem BioAssay AID1347076 (National Center for Advancing Translational Sciences (NCATS), 2019):
# Among all 400,000 compounds or so, about 13,000 (3.2%) were called active. Inconclusive means that the source gave no clear call. Such entries were picked first, then a sample of the others. Calls follow the shape of the dose curve; as a rule, active = well fitted cell-killing curve with a large enough effect; inconclusive = small, poorly fitted or top-dose-only effect, or effect the other way; inactive = flat fitted curve, though single readings scatter. Where the call is inconclusive, the potency comes from a doubtful curve fit.
# Test: qHTS assay for MDR1-selective chemotherapeutics: Primary screen using the drug-selected MDR subline cells KB-V1; also: nearly all actives have a fitted effect of over 60% in size
# Conditions: KB-V1 MDR cells viability, CellTiter-Glo, 72 h; activity change, negative = cytotoxicity: at 46.1 µM (top of the series)
# In short: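 Cytotoxicity toward P-gp-expressing KB-V1 cells was determined as loss of CellTiter-Glo luminescence after 72 h at 37 degrees C. Compounds were tested in quantitative HTS format across a concentration range, with curves fitted to normalized data.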
# % is scaled to controls: 0 for no effect and ±100 for the full control effect; potency is read from the fitted curve at half-maximal effect.
SMILES,"activity change, negative = cytotoxicity",Potency
CN(C)Cc1ccc(-c2nc3cccc4c3n2CCNC4=O)cc1,inactive: -6.54%,
CCCN(CCC)S(=O)(=O)c1ccc(C(=O)Nc2sc3c(c2C(=O)OC)CCN(CC)C3)cc1,inconclusive: 41.9%,
CCOc1cccc(C=NNc2ccc(S(=O)(=O)Nc3ccccc3C(=O)O)cc2[N+](=O)[O-])c1O,inconclusive: -4.7%,
CC(C)(C)NC(=O)CN(C(=O)CS(=O)CC(=O)Nc1ccc(F)cc1)c1ccccc1 (stereo not given),,"inconclusive: 0.92 µM [rising, full curve, poor fit]"
COc1ccc(S(=O)(=O)Nc2ccc(F)cc2F)cc1C(=O)N1CCOCC1,inactive: -0.519%,
CCCCn1c(N)c(S(=O)(=O)c2ccc(C)cc2)c2nc3ccccc3nc21,,"inconclusive: 20.6 µM [cytotoxic, single point]"
O=C(CN1CC[n+]2c(-c3cccs3)csc21)c1ccc(Br)cc1,,"inconclusive: 20.6 µM [cytotoxic, single point]"
CC12CCC(C(=O)N3CCCc4ccccc43)(CC1=O)C2(C)C (stereo not given),,active: 16.4 µM
Cc1cnc(NC(=O)c2cc3ccccc3o2)s1,inactive: 6.38%,
Cc1ccc(S(=O)(=O)NCCC(=O)N2CCCCCCC2)cc1,,"inconclusive: 11.6 µM [cytotoxic, partial curve, poor fit]"
Cc1ccnc(NC(=O)c2ccc(OCC3CCCO3)cc2)c1 (stereo not given),,"inconclusive: 11.6 µM [cytotoxic, partial curve, poor fit]"
COc1ccc(NC(=O)CSc2nc3sc(C)c(C)c3c(=O)n2Cc2ccco2)cc1,,"inconclusive: 7.31 µM [cytotoxic, partial curve, poor fit]"
Cc1ccc2c(c1)N(CCCC(=O)NCCCN1CCCC1=O)C(=O)CO2,,"inconclusive: 8.2 µM [rising, partial curve]"
O=C(NCCc1ccc(Cl)cc1)C(=O)NCC(c1ccco1)S(=O)(=O)c1ccc(Cl)cc1 (stereo not given),inactive: -6.52%,
CCOc1ccc(Br)cc1S(=O)(=O)Nc1ccc(Cl)c(S(=O)(=O)N(CC)c2ccccc2)c1,,"inconclusive: 10.3 µM [cytotoxic, partial curve]"
CC(C)C(=O)N1CCN(c2nc(-c3ccc(Cl)cc3)cs2)CC1,inactive: -25.6%,
CCCN1C(=O)C2(c3ccccc31)c1c(oc3ccc(F)cc3c1=O)C(=O)N2CCCOC(C)C (stereo not given),inactive: -3.14%,
Cc1ccc(N2C(=O)c3ccccc3C(C)(C)C2=O)cc1,,"inconclusive: 29.1 µM [rising, single point]"
Cc1ccc(C(=O)C2C(c3ccc(-c4ccccc4[N+](=O)[O-])o3)NC(=O)NC2(O)C(F)(F)F)cc1 (stereo not given),inactive: 4.3%,
COc1ccc(C2(C(=O)Nc3ccc(C)cc3)CCOCC2)cc1,,"inconclusive: 14.6 µM [cytotoxic, single point]"
O=C(c1ccccc1)c1sc(N2CCCCCC2)nc1-c1ccccc1,,"inconclusive: 11.6 µM [cytotoxic, partial curve]"
Cc1nnc(N/N=C/c2ccc(-c3ccc(Br)cc3)o2)n1N,inactive: -2.01%,
Cc1c(Cl)cccc1NC(=S)NCCC(c1ccccc1)c1ccccc1,,"inconclusive: 16.4 µM [cytotoxic, partial curve, poor fit]"

SMILES,"activity change, negative = cytotoxicity",Potency
CC(C)(C)n1nnnc1C(c1cccs1)N1CCCc2ccccc21 (stereo not given),,"inconclusive: 20.6 µM [cytotoxic, single point]"
CN(C(=O)CSc1nnc(-c2ccccc2F)o1)C1CCCCC1,inactive: -3.41%,
CCC(C)Nc1nc(N)c([N+](=O)[O-])c(N2CCCCCC2)n1 (stereo not given),inactive: -25.6%,
CC(=O)Nc1ccc(S(=O)(=O)NCCc2ccc(F)cc2)cc1,,active: 23.1 µM
C=CCC(=O)N1CCCC(CCC(=O)NCc2ccccc2F)C1 (stereo not given),,"inconclusive: 20.6 µM [cytotoxic, partial curve, poor fit]"
Cc1cc(OCCCC(=O)Nc2cccc(-n3cnnn3)c2)ccc1Cl,,"inconclusive: 14.6 µM [cytotoxic, single point]"
O=C1C=CC(=Nc2ccc(F)cc2)O1,,"inconclusive: 18.4 µM [rising, single point]"
COC(=O)CNC(=O)COC(=O)/C=C/c1ccccc1[N+](=O)[O-],inactive: 26.7%,
CCc1nonc1NC(=O)c1oc2ccc(Br)cc2c1C,,"inconclusive: 5.17 µM [rising, partial curve]"
Cc1n[nH]c(C)c1CCN(C)C(=O)C1CCC(=O)N(CC2CCCCC2)C1 (stereo not given),,"inconclusive: 23.1 µM [cytotoxic, single point]"
CCCCCCOc1ccc(OC(=O)c2ccncc2)cc1,inactive: 0.241%,
N#Cc1ccc(S(=O)(=O)N2CCCN(c3nc4ccc(Cl)cc4s3)CC2)cc1,,"inconclusive: 29.1 µM [cytotoxic, single point]"
Cc1ccc(-c2cc(=O)c3ccccc3[nH]2)cc1,,"inconclusive: 29.1 µM [cytotoxic, single point]"
O=C(NCCN1CCCCC1)c1ccc(Oc2cc(Cl)cc(Cl)c2)o1,,"inconclusive: 16.4 µM [cytotoxic, partial curve]"
O=C(/C=C/Nc1ccccc1Br)c1ccccn1,,"inconclusive: 20.6 µM [cytotoxic, single point]"
Cc1cccc2cc(CN(CC3CCCO3)S(=O)(=O)c3ccccc3)c(=O)[nH]c12 (stereo not given),,"inconclusive: 2.06 µM [cytotoxic, partial curve, poor fit]"
CCOC(=O)C1=C(C)NC(=O)NC1c1ccc(OC(=O)c2ccco2)cc1 (stereo not given),,"inconclusive: 18.4 µM [rising, single point]"
NC(=O)c1c(NC(=O)CSc2nnc(-c3ccco3)n2-c2ccccc2)sc2c1CCC2,,"inconclusive: 29.1 µM [cytotoxic, single point]"
Clc1ccc(CN2CCC(c3ccccc3)CC2)cc1,inactive: 3.93%,
C=CCn1c(SCc2csc(C)n2)nc2scc(-c3ccc(C)o3)c2c1=O,,active: 11.6 µM
COc1cc([N+](=O)[O-])ccc1NC(=O)CSc1nccn1C,,"inconclusive: 2.59 µM [rising, full curve]"
CCN1CCN(Cc2c(C)[nH]c3ccc(C(=O)OC)cc3c2=O)CC1,,"inconclusive: 20.6 µM [rising, single point]"

# 2 of the compounds above, with bars between the fields.
SMILES | activity change, negative = cytotoxicity | Potency
Cc1cc(OCCCC(=O)Nc2cccc(-n3cnnn3)c2)ccc1Cl |  | inconclusive: 14.6 µM [cytotoxic, single point]
Cc1ccc(-c2cc(=O)c3ccccc3[nH]2)cc1 |  | inconclusive: 29.1 µM [cytotoxic, single point]
